Data as given in paper PMC5312277.
Results are given in words; binding and its absence hold for the method and conditions named. Binding seen in cells or lysates may run through a third protein. Some results given as binding are weak or reduced against the parent protein; the word gives no strength.

By UniProt entry, the sequences of proteins in these tests, tags left out. Residues count along the entry.
UniProt Q62844: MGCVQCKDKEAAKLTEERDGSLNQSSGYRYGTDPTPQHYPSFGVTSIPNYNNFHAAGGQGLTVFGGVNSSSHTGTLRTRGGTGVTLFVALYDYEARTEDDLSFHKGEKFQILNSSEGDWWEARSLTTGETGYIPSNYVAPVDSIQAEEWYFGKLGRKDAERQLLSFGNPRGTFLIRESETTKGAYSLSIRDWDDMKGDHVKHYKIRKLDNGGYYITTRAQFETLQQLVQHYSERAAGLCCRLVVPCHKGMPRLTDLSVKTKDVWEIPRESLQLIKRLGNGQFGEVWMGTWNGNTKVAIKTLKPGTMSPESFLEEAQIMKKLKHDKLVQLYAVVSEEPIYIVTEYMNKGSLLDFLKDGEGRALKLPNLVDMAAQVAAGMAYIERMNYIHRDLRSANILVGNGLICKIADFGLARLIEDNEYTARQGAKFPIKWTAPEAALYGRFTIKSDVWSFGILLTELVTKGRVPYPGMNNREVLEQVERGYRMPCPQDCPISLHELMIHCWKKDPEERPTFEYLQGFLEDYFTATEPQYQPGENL
UniProt Q00960, residues 27-1482: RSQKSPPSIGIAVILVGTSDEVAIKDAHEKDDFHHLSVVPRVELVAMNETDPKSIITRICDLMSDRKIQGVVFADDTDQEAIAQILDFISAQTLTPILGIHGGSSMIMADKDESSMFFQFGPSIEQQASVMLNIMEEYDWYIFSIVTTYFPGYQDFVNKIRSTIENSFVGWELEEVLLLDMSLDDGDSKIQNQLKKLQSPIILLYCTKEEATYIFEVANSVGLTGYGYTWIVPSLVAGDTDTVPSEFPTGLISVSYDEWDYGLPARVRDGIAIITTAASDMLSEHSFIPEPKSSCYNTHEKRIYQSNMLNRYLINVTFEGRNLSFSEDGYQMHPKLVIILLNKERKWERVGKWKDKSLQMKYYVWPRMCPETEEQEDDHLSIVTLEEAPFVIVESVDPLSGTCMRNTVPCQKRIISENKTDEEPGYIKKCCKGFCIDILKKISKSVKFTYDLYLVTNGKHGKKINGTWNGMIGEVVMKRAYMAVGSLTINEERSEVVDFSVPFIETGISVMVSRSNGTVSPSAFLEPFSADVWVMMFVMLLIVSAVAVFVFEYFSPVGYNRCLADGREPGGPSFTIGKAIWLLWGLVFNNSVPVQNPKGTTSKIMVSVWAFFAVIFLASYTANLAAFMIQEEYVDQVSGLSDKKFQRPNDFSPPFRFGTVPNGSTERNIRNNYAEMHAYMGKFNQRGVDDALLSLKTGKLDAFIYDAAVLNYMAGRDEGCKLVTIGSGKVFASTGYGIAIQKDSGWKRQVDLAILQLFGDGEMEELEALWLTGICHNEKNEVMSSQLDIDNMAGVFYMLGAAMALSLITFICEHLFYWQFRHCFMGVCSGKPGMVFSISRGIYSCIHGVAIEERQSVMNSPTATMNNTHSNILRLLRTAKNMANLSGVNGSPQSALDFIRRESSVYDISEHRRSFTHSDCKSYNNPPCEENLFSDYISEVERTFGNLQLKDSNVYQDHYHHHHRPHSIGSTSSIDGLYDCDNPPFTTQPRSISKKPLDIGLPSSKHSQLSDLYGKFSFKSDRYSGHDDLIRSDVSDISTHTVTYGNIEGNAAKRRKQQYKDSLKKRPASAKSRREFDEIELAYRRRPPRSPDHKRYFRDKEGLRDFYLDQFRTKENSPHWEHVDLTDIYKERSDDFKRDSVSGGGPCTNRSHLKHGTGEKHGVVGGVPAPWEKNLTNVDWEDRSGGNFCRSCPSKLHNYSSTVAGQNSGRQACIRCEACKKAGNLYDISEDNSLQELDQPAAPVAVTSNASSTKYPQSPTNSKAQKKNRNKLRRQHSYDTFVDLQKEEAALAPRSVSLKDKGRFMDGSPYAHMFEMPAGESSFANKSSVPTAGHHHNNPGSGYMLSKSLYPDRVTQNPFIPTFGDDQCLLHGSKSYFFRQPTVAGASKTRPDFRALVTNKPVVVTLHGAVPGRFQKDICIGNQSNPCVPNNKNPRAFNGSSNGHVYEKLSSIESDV

Molecular target: Fyn tyrosine kinase (rat (endogenous in striatum)) (UniProt Q62844)
Assay: co-IP; 400 ug striatal protein (lesioned and unlesioned side) of 6-OHDA-lesioned rats treated with L-dopa alone (Dyskinesia), L-dopa plus rTMS, or L-dopa plus sham stimulation; IP with mouse monoclonal anti-Fyn antibody and protein A sepharose CL-4B at 4 °C, blotted with anti-NR2B antibody

- binding: binds
Substance: NR2B (from UniProt Q00960 27-1482)
